Assay results: the supplement of paper PMC10849652
The list shows a part of the results.

The chains behind the UniProt entries cited, without tags or fusion partners. Where a name states a change or a piece, a line headed by the entry shows the natural chain unless it says otherwise.
UniProt P15954, whole entry, looked up: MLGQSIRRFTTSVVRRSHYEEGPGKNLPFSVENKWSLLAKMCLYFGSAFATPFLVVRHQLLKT
UniProt P57737: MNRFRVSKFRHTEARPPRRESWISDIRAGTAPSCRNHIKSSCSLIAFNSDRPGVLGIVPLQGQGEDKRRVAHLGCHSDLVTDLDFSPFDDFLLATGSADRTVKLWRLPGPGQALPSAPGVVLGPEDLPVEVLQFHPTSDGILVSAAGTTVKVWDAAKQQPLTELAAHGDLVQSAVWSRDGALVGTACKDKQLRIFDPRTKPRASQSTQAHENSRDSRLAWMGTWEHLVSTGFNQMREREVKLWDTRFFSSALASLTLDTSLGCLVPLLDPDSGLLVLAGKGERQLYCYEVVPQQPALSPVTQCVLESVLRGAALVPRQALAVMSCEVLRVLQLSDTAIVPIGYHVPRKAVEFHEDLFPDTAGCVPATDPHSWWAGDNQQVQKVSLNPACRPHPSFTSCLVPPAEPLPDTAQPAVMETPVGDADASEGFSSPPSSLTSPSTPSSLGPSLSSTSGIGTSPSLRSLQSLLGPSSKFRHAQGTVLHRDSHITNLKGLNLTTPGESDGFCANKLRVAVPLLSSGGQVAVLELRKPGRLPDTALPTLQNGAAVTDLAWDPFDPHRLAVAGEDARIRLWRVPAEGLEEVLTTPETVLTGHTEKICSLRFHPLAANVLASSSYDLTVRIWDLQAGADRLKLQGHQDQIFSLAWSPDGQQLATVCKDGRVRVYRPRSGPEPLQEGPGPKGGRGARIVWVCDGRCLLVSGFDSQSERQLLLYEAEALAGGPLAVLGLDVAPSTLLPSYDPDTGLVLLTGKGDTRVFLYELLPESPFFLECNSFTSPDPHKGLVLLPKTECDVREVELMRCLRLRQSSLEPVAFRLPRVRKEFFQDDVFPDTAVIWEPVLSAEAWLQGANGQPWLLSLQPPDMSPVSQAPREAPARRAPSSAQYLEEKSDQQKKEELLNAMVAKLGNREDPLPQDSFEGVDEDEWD
UniProt P02511: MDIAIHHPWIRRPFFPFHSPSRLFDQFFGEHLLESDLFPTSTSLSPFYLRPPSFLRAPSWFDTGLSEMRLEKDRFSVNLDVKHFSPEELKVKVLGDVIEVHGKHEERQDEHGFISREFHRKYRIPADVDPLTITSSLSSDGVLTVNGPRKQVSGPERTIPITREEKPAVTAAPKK
UniProt P36551: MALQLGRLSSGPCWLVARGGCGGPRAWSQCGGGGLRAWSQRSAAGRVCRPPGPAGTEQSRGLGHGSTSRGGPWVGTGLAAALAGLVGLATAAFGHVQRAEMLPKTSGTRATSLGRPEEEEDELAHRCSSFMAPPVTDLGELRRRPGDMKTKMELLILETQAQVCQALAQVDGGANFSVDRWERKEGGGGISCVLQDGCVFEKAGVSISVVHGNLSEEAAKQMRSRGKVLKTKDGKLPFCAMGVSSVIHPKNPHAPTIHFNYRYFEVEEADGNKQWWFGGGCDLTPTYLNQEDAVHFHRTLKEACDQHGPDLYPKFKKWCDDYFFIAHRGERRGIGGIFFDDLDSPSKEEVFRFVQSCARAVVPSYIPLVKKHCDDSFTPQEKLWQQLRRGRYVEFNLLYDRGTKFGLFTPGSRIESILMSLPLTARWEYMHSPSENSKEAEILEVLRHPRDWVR
UniProt P50416: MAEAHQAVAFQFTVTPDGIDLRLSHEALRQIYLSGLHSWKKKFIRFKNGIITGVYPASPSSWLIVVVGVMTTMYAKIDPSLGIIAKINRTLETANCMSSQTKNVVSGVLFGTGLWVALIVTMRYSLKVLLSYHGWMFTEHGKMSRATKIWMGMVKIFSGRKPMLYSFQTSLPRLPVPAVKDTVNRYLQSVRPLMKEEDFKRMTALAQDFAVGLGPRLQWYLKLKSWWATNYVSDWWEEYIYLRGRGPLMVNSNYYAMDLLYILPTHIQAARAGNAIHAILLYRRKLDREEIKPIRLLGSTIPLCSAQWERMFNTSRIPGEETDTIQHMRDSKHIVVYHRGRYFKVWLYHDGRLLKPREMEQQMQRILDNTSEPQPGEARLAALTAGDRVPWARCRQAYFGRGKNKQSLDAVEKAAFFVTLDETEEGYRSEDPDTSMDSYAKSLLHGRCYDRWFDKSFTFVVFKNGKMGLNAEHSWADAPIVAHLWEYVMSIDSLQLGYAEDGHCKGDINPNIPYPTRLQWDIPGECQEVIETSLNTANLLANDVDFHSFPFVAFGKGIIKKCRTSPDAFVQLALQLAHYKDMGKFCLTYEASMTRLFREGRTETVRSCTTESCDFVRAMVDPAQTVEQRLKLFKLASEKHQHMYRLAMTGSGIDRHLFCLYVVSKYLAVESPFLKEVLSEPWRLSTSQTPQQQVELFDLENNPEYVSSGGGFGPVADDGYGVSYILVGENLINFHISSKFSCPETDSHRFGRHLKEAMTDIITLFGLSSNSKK
UniProt Q9NX08, whole entry, looked up: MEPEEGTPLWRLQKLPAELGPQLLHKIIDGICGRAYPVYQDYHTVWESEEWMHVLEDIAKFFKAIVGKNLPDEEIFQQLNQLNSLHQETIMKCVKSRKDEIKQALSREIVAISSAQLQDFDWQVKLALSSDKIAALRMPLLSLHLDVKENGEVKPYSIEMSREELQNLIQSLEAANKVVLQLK
UniProt Q9Y6N1: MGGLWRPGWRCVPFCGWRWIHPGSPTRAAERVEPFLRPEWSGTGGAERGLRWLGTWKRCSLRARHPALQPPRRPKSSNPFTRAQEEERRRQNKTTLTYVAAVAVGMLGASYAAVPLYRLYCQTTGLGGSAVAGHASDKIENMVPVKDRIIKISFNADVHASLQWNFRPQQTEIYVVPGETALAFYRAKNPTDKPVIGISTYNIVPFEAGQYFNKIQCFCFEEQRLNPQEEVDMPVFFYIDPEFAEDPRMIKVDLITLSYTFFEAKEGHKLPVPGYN
UniProt P12074, whole entry, looked up: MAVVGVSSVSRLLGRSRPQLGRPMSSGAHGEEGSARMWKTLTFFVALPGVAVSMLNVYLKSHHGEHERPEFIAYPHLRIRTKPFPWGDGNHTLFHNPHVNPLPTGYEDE
UniProt Q96FN4: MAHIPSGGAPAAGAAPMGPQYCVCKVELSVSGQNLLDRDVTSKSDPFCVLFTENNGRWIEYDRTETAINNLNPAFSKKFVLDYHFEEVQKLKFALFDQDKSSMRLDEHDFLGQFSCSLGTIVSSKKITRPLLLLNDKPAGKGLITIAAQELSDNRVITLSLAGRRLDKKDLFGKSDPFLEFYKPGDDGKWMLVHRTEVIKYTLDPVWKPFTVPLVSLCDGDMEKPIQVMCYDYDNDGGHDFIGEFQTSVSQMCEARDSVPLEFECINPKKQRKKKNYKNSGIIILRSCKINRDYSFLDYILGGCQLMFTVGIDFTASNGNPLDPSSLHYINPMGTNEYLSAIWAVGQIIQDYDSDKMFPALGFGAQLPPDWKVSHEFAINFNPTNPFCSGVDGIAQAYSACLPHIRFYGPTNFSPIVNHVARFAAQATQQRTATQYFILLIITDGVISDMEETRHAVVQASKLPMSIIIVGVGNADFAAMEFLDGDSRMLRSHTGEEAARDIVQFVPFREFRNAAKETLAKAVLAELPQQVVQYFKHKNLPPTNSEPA
UniProt Q92905, whole entry, looked up: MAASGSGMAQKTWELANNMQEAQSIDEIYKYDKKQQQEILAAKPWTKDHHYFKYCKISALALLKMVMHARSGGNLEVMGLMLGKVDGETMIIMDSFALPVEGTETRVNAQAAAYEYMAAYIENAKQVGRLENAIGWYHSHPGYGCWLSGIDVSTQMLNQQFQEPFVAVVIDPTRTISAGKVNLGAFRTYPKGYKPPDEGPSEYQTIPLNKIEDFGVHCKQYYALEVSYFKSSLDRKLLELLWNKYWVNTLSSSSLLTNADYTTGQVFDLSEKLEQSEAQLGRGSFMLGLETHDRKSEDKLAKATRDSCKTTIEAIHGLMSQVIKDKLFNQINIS
UniProt Q14061: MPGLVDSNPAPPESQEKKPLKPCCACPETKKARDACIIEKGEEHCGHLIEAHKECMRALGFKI
UniProt Q16526: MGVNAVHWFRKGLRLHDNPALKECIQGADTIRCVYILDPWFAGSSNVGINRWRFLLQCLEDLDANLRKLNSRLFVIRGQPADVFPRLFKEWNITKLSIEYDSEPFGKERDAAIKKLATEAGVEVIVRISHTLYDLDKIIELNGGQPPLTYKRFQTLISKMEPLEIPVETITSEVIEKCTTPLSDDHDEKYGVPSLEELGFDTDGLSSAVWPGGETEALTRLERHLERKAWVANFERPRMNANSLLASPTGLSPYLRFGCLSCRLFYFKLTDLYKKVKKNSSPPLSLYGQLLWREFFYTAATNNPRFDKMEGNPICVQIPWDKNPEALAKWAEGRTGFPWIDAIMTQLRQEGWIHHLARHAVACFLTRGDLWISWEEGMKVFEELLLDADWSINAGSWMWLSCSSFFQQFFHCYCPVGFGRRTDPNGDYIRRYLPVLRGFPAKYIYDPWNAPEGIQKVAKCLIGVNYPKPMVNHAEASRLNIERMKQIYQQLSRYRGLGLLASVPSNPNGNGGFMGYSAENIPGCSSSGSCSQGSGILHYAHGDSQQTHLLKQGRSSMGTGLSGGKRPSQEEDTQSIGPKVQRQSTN
UniProt P02458, whole entry, looked up: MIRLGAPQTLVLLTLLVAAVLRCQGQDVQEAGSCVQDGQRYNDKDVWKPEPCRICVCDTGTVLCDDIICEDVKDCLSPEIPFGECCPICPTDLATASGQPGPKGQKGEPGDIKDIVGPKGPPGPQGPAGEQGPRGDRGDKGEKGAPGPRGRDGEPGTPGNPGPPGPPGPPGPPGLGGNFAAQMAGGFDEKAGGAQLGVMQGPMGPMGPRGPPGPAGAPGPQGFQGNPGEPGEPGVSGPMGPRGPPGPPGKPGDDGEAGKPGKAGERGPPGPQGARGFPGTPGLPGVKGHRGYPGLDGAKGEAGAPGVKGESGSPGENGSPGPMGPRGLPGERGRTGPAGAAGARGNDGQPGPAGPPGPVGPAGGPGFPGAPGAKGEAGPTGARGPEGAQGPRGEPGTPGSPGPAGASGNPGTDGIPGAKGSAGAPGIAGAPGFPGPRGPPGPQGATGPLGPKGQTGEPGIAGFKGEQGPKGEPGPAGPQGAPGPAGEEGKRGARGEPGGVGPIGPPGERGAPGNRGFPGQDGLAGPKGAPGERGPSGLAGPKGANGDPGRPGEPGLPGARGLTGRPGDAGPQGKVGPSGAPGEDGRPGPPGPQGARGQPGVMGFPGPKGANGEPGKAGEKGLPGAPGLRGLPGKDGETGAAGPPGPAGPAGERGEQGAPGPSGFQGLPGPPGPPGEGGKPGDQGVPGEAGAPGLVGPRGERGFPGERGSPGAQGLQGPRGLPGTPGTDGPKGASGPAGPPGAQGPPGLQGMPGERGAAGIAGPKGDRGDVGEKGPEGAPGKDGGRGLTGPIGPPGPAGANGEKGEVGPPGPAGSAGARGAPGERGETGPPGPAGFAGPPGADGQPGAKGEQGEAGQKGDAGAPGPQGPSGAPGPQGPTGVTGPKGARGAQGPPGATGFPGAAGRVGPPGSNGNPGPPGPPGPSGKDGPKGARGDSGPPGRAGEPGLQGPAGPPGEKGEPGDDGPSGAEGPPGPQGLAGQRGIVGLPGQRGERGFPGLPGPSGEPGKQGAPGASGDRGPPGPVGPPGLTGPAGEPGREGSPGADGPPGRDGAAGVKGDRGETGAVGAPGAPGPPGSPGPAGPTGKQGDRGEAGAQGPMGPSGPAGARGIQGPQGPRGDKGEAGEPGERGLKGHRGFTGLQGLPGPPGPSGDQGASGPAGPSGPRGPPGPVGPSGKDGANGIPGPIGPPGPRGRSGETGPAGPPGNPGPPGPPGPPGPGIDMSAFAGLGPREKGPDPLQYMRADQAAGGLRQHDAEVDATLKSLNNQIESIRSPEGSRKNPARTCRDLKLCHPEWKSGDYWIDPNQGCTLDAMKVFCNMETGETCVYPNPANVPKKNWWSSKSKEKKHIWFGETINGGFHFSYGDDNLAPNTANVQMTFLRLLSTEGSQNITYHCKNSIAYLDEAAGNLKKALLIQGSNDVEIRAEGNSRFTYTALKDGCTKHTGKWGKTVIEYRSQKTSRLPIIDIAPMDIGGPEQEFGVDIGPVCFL
UniProt O75575: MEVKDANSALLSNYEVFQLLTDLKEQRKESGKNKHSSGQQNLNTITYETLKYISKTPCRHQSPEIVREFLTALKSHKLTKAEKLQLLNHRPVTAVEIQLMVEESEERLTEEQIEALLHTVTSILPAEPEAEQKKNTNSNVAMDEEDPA
UniProt Q6QEF8, whole entry, looked up: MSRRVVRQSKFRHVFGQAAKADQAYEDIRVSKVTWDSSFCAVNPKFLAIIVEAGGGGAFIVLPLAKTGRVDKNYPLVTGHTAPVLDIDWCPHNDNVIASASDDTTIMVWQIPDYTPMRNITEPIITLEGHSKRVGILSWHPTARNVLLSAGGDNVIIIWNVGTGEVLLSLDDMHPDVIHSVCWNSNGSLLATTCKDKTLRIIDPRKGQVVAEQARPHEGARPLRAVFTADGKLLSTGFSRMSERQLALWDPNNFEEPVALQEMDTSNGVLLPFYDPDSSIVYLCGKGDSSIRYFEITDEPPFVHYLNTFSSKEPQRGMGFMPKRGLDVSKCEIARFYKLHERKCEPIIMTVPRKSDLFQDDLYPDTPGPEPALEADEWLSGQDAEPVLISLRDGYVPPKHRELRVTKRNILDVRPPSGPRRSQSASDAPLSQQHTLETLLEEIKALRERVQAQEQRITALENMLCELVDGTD

How the values were obtained:
Assay in all cases: log2 fold change, soluble protein after heating vs DMSO (PISA); higher = thermal stabilisation; K562 cells, 10 uM, 30 min; active = over 0.2 and 3.5 SD of the protein, either way, in both replicates (recomputed)
[1] = compound: NC(=O)Nc1cc(-c2cccc(F)c2)sc1C(=O)N[C@H]1CCCNC1
Outline: (§1)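 K562 cells at 2×10^6 cells/mL were treated with 10 μM compound for 30 min. Aliquots were heated for 3 min across 48°C-58°C, pooled, and extracted in PBS with 0.5% NP-40 at 4°C; soluble protein was the supernatant after 21,000xg for 90 min. Soluble protein was quantified by TMTpro 16plex LC-MS/MS with channel sums equalised, and reported as log2 fold change in thermal stability against DMSO controls, with values from duplicates.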

[2] = compound: NC(=O)c1cnc(N[C@@H]2CCCC[C@@H]2N)nc1Nc1cccc(-n2nccn2)c1
Outline: as §1

[3] = compound: NC1(c2ccc(-c3nc4ccn5c(=O)[nH]nc5c4cc3-c3ccccc3)cc2)CCC1
Outline: as §1

[4] = compound: Nc1ccccc1NC(=O)c1ccc(CNC(=O)OCc2cccnc2)cc1 [entinostat]
Outline: as §1

[5] = compound: O=C(CCCCCCC(=O)Nc1ccccc1)NO [vorinostat]
Outline: as §1

[6] = compound: O=C(CCCCCCNC(=O)c1cnc(N(c2ccccc2)c2ccccc2Cl)nc1)NO [citarinostat]
Outline: as §1

[7] = compound: O=C(O)c1ccc2c(c1)nc(Nc1cccc(Cl)c1)c1ccncc12 [silmitasertib]
Outline: as §1

[8] = compound: O=C1NC(=O)C(c2cnc3ccccn23)=C1c1cn2c3c(cc(F)cc13)CN(C(=O)N1CCCCC1)CC2
Outline: as §1

[9] = compound: c1cc(OCCN2CCCCC2)cc(-c2n[nH]c3ccc(-c4nnc[nH]4)cc23)c1
Outline: as §1

[10] = compound: NCC(=O)Nc1ccc(-n2nc(C(F)(F)F)cc2-c2ccc3c(ccc4ccccc43)c2)cc1
Outline: as §1

Measured: log2 fold change

CSNK1G2 (UniProt P78368)
inactive: [1] 0.057 | [2] -0.089 | [3] -0.11 | [4] -0.136 | [5] -0.034 | [6] -0.09 | [7] 0.053 | [8] 0 | [9] -0.09

CSNK1G3 (UniProt Q9Y6M4)
inactive: [1] 0.004 | [2] -0.104 | [3] -0.087 | [10] -0.077 | [4] 0.022 | [5] 0.02 | [6] 0.047 | [7] 0.087 | [8] 0.121 | [9] -0.049

COX7C (UniProt P15954)
inactive: [1] 0.009 | [2] 0.048 | [3] -0.013 | [10] 0.046 | [4] 0.014 | [5] -0.017 | [6] 0.079 | [7] -0.003 | [8] -0.089 | [9] -0.059

CPSF3 (UniProt Q9UKF6)
inactive: [1] 0.001 | [2] -0.05 | [3] -0.032 | [10] -0.058 | [4] -0.002 | [5] 0.016 | [6] 0.026 | [7] 0.129 | [8] -0.006 | [9] -0.075

CORO2A (UniProt Q92828)
active: [3] -0.287
inactive: [1] 0.069 | [2] -0.027 | [10] -0.085 | [4] -0.061 | [5] 0.027 | [6] -0.114 | [7] -0.019 | [9] -0.212

CORO7 isoform 3 (UniProt P57737)
inactive: [1] 0.128 | [2] -0.035 | [3] -0.032 | [10] -0.023 | [4] 0.063 | [5] -0.027 | [6] 0.093 | [7] -0.018 | [8] 0.176 | [9] 0.021

CRYAB (UniProt P02511)
inactive: [1] -0.183 | [2] 0.119 | [10] -0.09 | [4] 0.07 | [6] 0 | [8] -0.037 | [9] -0.168

COQ8A (UniProt Q8NI60)
inactive: [1] 0.019 | [2] 0.016 | [3] -0.039 | [10] 0.142 | [4] 0.023 | [5] 0.057 | [6] -0.001 | [7] -0.03 | [8] -0.018 | [9] -0.032

CRMP1 isoform 2 (UniProt Q14194)
inactive: [1] -0.121 | [2] 0 | [10] -0.099 | [4] -0.055 | [5] 0.193

CSNK2A1 (UniProt P68400)
inactive: [1] -0.062 | [2] 0.014 | [3] 0.007 | [10] 0.05 | [4] -0.015 | [5] 0.046 | [6] -0.013 | [8] -0.027 | [9] -0.045

CORO1C isoform 3 (UniProt Q9ULV4)
inactive: [1] 0.05 | [2] 0.016 | [3] 0.049 | [10] 0.004 | [4] 0.011 | [5] 0.035 | [6] 0.013 | [7] 0.067 | [8] 0.006 | [9] 0.024

CRIP2 isoform 2 (UniProt P52943)
inactive: [1] -0.049 | [2] -0.161 | [10] -0.022 | [4] 0.031 | [6] 0.009 | [8] 0.046 | [9] -0.001

CPOX (UniProt P36551)
inactive: [1] 0.013 | [2] -0.035 | [3] 0.006 | [10] 0.015 | [4] -0.041 | [5] -0.009 | [6] -0.004 | [7] 0.051 | [8] 0.001 | [9] 0.041

CPT1A (UniProt P50416)
inactive: [1] -0.068 | [2] -0.012 | [3] 0.117 | [10] -0.001 | [4] -0.005 | [5] -0.017 | [6] 0.053 | [7] 0.037 | [8] -0.014 | [9] 0.071

COMMD8 (UniProt Q9NX08)
inactive: [1] 0.062 | [2] -0.013 | [3] -0.108 | [4] 0.096 | [5] -0.036 | [6] 0.017 | [7] 0.03 | [8] 0.055 | [9] -0.068

COX11 (UniProt Q9Y6N1)
inactive: [1] -0.035 | [2] 0.032 | [3] -0.007 | [10] -0.034 | [4] 0.028 | [5] 0.05 | [6] 0.105 | [7] 0.043 | [8] -0.032 | [9] -0.011

COX6A1 (UniProt P12074)
inactive: [1] -0.027 | [2] -0.109 | [3] 0.082 | [10] 0.023 | [4] 0.053 | [6] -0.1 | [7] -0.101 | [9] -0.257

COPE (UniProt O14579)
inactive: [1] -0.098 | [2] -0.029 | [3] -0.077 | [10] -0.061 | [4] 0.032 | [5] -0.028 | [6] 0.032 | [7] 0.064 | [8] -0.028 | [9] -0.178

COPA isoform 2 (UniProt P53621)
inactive: [1] -0.048 | [2] -0.037 | [3] -0.047 | [10] -0.021 | [4] 0.006 | [5] -0.014 | [6] 0.044 | [7] 0.011 | [8] -0.017 | [9] -0.031

COMP (UniProt P49747)
inactive: [1] -0.246 | [2] -0.075 | [3] 0.14 | [4] -0.166 | [5] 0.352 | [6] -0.112 | [7] 0.166 | [9] 0.311

COLGALT2 (UniProt Q8IYK4)
inactive: [1] 0.014 | [2] 0 | [3] -0.075 | [10] 0.011 | [4] 0.014 | [5] -0.031 | [6] 0.024 | [7] 0.044 | [8] -0.019 | [9] -0.061

CPSF7 isoform 3 (UniProt Q8N684)
inactive: [1] -0.063 | [2] 0.025 | [3] 0.027 | [10] 0.013 | [4] -0.023 | [5] 0.01 | [6] 0.001 | [7] -0.069 | [8] 0.054 | [9] -0.035

CRTC1 isoform 2 (UniProt Q6UUV9)
inactive: [1] -0.132 | [2] -0.151 | [10] 0.01 | [4] 0.044 | [5] 0.012 | [8] -0.371

Two neighbouring entries already listed, for reference:
COMP (UniProt P49747)
inactive: [1] -0.246 | [2] -0.075 | [3] 0.14 | [4] -0.166 | [5] 0.352 | [6] -0.112 | [7] 0.166 | [9] 0.311

COLGALT2 (UniProt Q8IYK4)
inactive: [1] 0.014 | [2] 0 | [3] -0.075 | [10] 0.011 | [4] 0.014 | [5] -0.031 | [6] 0.024 | [7] 0.044 | [8] -0.019 | [9] -0.061

(next part)

CPNE2 (UniProt Q96FN4)
inactive: [1] -0.085 | [2] -0.001 | [3] -0.308 | [10] -0.103 | [4] -0.081 | [5] -0.205 | [6] 0.134 | [7] 0.061 | [8] 0.066 | [9] 0.038

COPS5 (UniProt Q92905)
inactive: [1] 0.011 | [2] 0.012 | [3] -0.036 | [10] 0.001 | [4] -0.014 | [5] 0.03 | [6] 0.043 | [7] 0.004 | [8] 0.012 | [9] -0.023

COX17 (UniProt Q14061)
inactive: [1] -0.002 | [2] 0.017 | [3] -0.088 | [10] 0.052 | [4] 0.048 | [5] -0.077 | [7] 0.119 | [8] -0.141

CSNK1A1 isoform 3 (UniProt P48729)
inactive: [3] -0.204 | [7] 0

CRY1 (UniProt Q16526)
inactive: [10] 0.107 | [5] 0.012 | [8] -0.267

COL2A1 (UniProt P02458)
inactive: [2] 0.187 | [10] 0.123

CRCP (UniProt O75575)
inactive: [1] 0.07 | [3] 0.039 | [4] 0.032 | [5] -0.072 | [6] -0.21 | [7] 0.168 | [8] 0.193 | [9] 0.063

CPN1 (UniProt P15169)
inactive: [10] -0.241

CORO6 isoform 5 (UniProt Q6QEF8)
inactive: [1] -0.048 | [2] -0.046 | [10] -0.225 | [4] 0.119 | [8] -0.068

CRNN (UniProt Q9UBG3)
inactive: [3] 0.008 | [7] -0.503

CRYM (UniProt Q14894)
inactive: [5] 0.21 | [8] 0.007
